Experimental data as given in US20100286372A1 (SCHERING, published 2010).
No constants are given. Whether binding was seen depends on the method and setting. Some binding calls cover weakened binding; strength is not graded here. Sequences can lack the tags named with a protein.

Target: T1, human PXR-LBD (pregnane X receptor ligand binding domain, residues 130-434) with N-terminal 6x His (human) (UniProt O75469)
T1 sequence: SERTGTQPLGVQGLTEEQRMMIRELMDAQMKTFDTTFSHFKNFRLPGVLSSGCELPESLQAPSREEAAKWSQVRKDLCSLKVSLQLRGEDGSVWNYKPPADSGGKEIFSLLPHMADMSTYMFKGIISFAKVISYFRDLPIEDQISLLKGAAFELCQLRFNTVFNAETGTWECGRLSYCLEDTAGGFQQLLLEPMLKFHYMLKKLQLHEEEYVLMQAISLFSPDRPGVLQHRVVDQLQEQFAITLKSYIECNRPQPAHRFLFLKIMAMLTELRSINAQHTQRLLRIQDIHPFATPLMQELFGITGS
Test: temperature-dependent circular dichroism (thermal denaturation)

B1: SRC-1 peptide (676-CPSSHSSLTERHKILHRLLQEGSPS-700) (peptide)
peptide: CPSSHSSLTERHKILHRLLQEGSPS
binding: binds
